# Experimental data reported in PubChem BioAssay AID624297 (National Center for Advancing Translational Sciences (NCATS), 2012).
# About 6,200 (1.8%) of roughly 340,000 compounds were called active. Inconclusive means that the source gave no clear call. Such entries were picked first, then a sample of the others. Calls follow the shape of the dose curve; as a rule, active = well fitted activation curve with a large enough effect; inconclusive = small, poorly fitted or top-dose-only effect; inactive = no such curve, though single readings can be large or run the other way. Where the call is inconclusive, the potency comes from a doubtful curve fit.
# Assay: A quantitative high throughput screen for small molecules that induce DNA re-replication in SW480 colon adenocarcinoma cells. Also: nearly all actives have a fitted effect of over 55% in size. As to re-replication activation: % of control where 0% means no effect.
# Conditions: Hoechst DNA content imaging, 48 h; re-replication activation: at 46.1 µM (top of the series) unless noted
# How it was run: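 Per well, 250 cells were exposed to pinned compound for 48 hr. Nuclear DNA was visualised with Hoechst (40 min, 37 C) and total object intensity recorded by fluorescence scanning.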
# Potency is read from the fitted curve at half-maximal effect.
SMILES,Potency,re-replication activation
CCCc1cc(C(=O)N2CCCC(C(=O)c3cccc4ccccc34)C2)n(C)n1 (configuration not stated),inactive,
Cc1ccc(C(=O)NC(=S)Nc2cc(C(F)(F)F)ccc2Cl)cc1,"inconclusive: 20.6 µM [activator, single point]",
CCN(C(=O)COC(=O)c1cccc(-n2cnnn2)c1)C1CCCCC1,inactive,
CC(C)COc1ccc(C(=O)OCC(=O)NCc2cccs2)cc1,"inconclusive: 32.6 µM [activator, partial curve, poor fit]",
CC(C)CCn1c(Sc2nc3ccccc3o2)nc2c1c(=O)[nH]c(=O)n2C,"inconclusive: 11.6 µM [activator, partial curve, poor fit]",
CC(C)c1ccc(C(=O)NCCCN2CCN(CCCNC(=O)c3ccc(C(C)C)cc3)CC2)cc1,"inconclusive: 18.4 µM [activator, single point]",
COc1cc(NC(=O)CSc2nnnn2Cc2ccccc2)cc(OC)c1,"inconclusive: 29.1 µM [activator, partial curve, poor fit]",
Cc1onc(-c2ccccc2)c1C(=O)OCC(=O)Nc1ccccc1,"inconclusive: 0.82 µM [activator, partial curve, poor fit]",
COc1ccc2nc(C)cc(SCC(=O)N/N=C/c3cccc4ccccc34)c2c1,active: 4.61 µM,
CC(=O)C1=C(O)C(=O)N(c2cccnc2)C1c1ccc(Cl)cc1 (configuration not stated),inactive,
NC(=O)c1sc2nc3c(cc2c1N)CCC3,"inconclusive: 18.4 µM [activator, partial curve, poor fit]",
CCCn1nnnc1NCc1c(F)cccc1Cl,inactive,
Cc1nnsc1NC(=O)OCc1ccc(C(C)(C)C)cc1,,inactive: -3.25% [at 9.22 µM]
CC(=O)OC1CCC2C3CCC4=C(CC(F)C(=O)C4)C3CCC12C (configuration not stated),"inconclusive: 32.6 µM [activator, partial curve, poor fit]",
CC(C)(C)NC(=O)CN(C(=O)c1snc(C(=O)NC2CCCCC2)c1N)c1ccc(F)cc1,"inconclusive: 14.6 µM [activator, partial curve, poor fit]",
CN(Cc1ccc(F)cc1)C(=O)C(c1ccccc1)c1ccccc1,"inconclusive: 29.1 µM [activator, single point]",
CCCCn1c(N)c(N(CC(C)C)C(=O)c2cccc(OCc3ccccc3)c2)c(=O)[nH]c1=O,"inconclusive: 25.9 µM [activator, single point]",
COc1cc(S(=O)(=O)N2CCN(c3ccccc3)CC2)ccc1Cl,inactive,
COc1ccc(S(=O)(=O)n2ccc(-c3ccc4c(c3)CCC(C)(C)O4)n2)cc1,"inconclusive: 23.1 µM [activator, single point]",
O=C(NC(=S)Nc1ccc(Br)cn1)c1cncc(Br)c1,inactive,
Cc1ccc(NC(=O)Nc2nnc(-c3ccccc3)o2)cc1,inactive,
CC(=O)NS(=O)(=O)c1ccc(NC(=O)CC23CC4CC(CC(Br)(C4)C2)C3)cc1,inactive,
O=C(Nc1ccc(F)cc1)Nc1nnc(-c2ccncc2)s1,"inconclusive: 29.1 µM [activator, single point]",
Cc1sc2ncnc(SCC(=O)c3cccs3)c2c1C,inactive,

SMILES,Potency,re-replication activation
O=C(NCCCc1ccccc1)c1ccccc1O,"inconclusive: 0.116 µM [activator, full curve, poor fit]",
Cc1ccc(Nc2nc(=O)c3cccnc3s2)cc1,active: 9.2 µM,
Cc1cc(NC(=S)NC(=O)/C=C/c2ccc(S(=O)(=O)N3CCOCC3)cc2)ccc1Br,"inconclusive: 29.1 µM [activator, single point]",
Cc1cc(C(=O)N/N=C/c2c(C)n(C)c3ccccc23)n[nH]1,inactive,
COc1cc(/C=N/Nc2nc(Nc3ccccc3)nc(-n3nc(C)cc3C)n2)cc(OC)c1OC,"inconclusive: 29.1 µM [activator, single point]",
COC(=O)c1cn(NC(=O)/C=C/c2cc(OC)ccc2OC)c(=O)c2ccccc12,inactive,
COc1cc(OC)cc(C(=O)NNC(=O)C(CCC(N)=O)NS(=O)(=O)c2ccc(Cl)cc2)c1 (configuration not stated),inactive,
Cn1cc(CNCc2cnc3ccccn23)c(-c2ccc(Oc3ccccc3)cc2)n1,inactive,
CNc1nc(NC)c2cn[nH]c2n1,inactive,
CCC(=O)N1c2ccccc2-c2nnc(SC)nc2OC1c1ccc(OC)c(OC)c1 (configuration not stated),inactive,
N#CC1=C(c2ccccc2)/C(=C/c2ccccc2)OC1=O,"inconclusive: 2.31 µM [activator, full curve, poor fit]",
CC(=O)N1CCc2cc(S(=O)(=O)NCCC(=O)NC3CCCc4ccccc43)ccc21 (configuration not stated),inactive,
O=S(=O)(c1ccc(Cl)cc1)c1snnc1-c1ccccc1,"inconclusive: 4.61 µM [activator, single point]",
N#Cc1nc(Cc2cccc3ccccc23)oc1NCCN1CCCCC1,"inconclusive: 15.8 µM [activator, single point]",
O=[N+]([O-])c1cccc(-c2csc(N/N=C/c3cccc(O)c3)n2)c1,"inconclusive: 11.6 µM [activator, partial curve, poor fit]",
COc1cc(CNc2ccc(N3CCCC3)cc2)ccc1OCc1ccccc1F,"inconclusive: 16.4 µM [activator, single point]",
CCOc1ccc(NC(=O)Nc2cccn(Cc3ccccc3)c2=O)cc1,inactive,
Cc1ccc(S(=O)(=O)N2CCCCC2C)cc1[N+](=O)[O-] (configuration not stated),inactive,
COC(=O)c1ccc(NC(=O)c2cccc(C)c2[N+](=O)[O-])cc1,"inconclusive: 18.4 µM [activator, single point]",
O=C(O)CCCN1C(=O)C(=O)/C(=C(/O)c2ccc(Cl)cc2)C1c1ccccc1 (configuration not stated),"inconclusive: 20.6 µM [activator, single point]",
CSC1=NS(=O)(=O)c2c(C)nn(C)c2S1,"inconclusive: 16.4 µM [activator, single point]",
COc1ccc(N2C(=O)CC(c3cc(OC)c(OC)c(OC)c3)CC2=O)cc1,"inconclusive: 20.6 µM [activator, single point]",
O=C(c1cccs1)N1CCN(c2cccc(Cl)c2)CC1,inactive,

# Ordered by length of the SMILES (ascending): part of the list above.
SMILES,Potency,re-replication activation
N#Cc1nc(Cc2cccc3ccccc23)oc1NCCN1CCCCC1,"inconclusive: 15.8 µM [activator, single point]",
CCOc1ccc(NC(=O)Nc2cccn(Cc3ccccc3)c2=O)cc1,inactive,
Cc1cc(NC(=S)NC(=O)/C=C/c2ccc(S(=O)(=O)N3CCOCC3)cc2)ccc1Br,"inconclusive: 29.1 µM [activator, single point]",
